The text below walks through data of the supplement of paper PMC4604168 (melanoma cell lines).

Molecules are shown by their SMILES. Some of the results follow. Many values rest on one well or one pass, so single values are uncertain.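 Cells were imaged in 1,536-well plates, and nuclei stained with an antibody against cleaved PARP were counted against all DNA-stained nuclei to give the apoptosis fraction. Screening doses were chosen to leave most cells alive, and resting and induced cleaved-PARP levels differ strongly between cell lines.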

Some test systems named below: WM115; WM1716; WM1745; WM3526; WM3619; WM451Lu.
Holding throughout (experiment): cleaved PARP positive nuclei fraction relative to DMSO control; melanoma cells; higher = more apoptosis
Common to all, as to details: library dose: low library concentration; 72 h

As for `Cc1nc(Nc2ncc(C(=O)Nc3c(C)cccc3Cl)s2)cc(N2CCN(CCO)CC2)n1` [dasatanib] + CN(C)S(=O)(=O)c1ccc2c(c1)/C(=C/c1cc3c([nH]1)CCCC3)C(=O)N2 [SU6656] (first compound 0.004 µM, partner dose 0.4 µM), the “cleaved PARP positive nuclei fraction” value in the experiment with WM115 turned out to be 247%; with WM1716, 134%; with WM1745, 148%; in the experiment with WM3526, 54.3%; in the experiment with WM3619, 101%; in the experiment on WM451Lu it was 80.5%.

As for `Cc1nc(Nc2ncc(C(=O)Nc3c(C)cccc3Cl)s2)cc(N2CCN(CCO)CC2)n1` [dasatanib] + CCN(CC)CCCCNc1ncc2cc(-c3cc(OC)cc(OC)c3)c(NC(=O)NC(C)(C)C)nc2n1 [PD173074] (first compound 0.004 µM, partner dose 0.1 µM), the “cleaved PARP positive nuclei fraction” value in the experiment on WM115 was 206%; with WM1716 it was 209%; in the experiment with WM1745, 165%; in the experiment on WM3526 it was 61.6%; with WM3619, 162%; with WM451Lu, 202%.

As to `CC(=O)c1c(C)c2cnc(Nc3ccc(N4CCNCC4)cn3)nc2n(C2CCCC2)c1=O` [palbociclib] + OCc1c[nH]c2ccccc12 [Indole-3-carbinol] (first compound 0.04 µM, partner dose 0.8 µM), the “cleaved PARP positive nuclei fraction” value in the experiment with WM115 is 95.2%; in the experiment with WM1716, 54.4%; in the experiment on WM1745 it was 101%; in the experiment with WM3526, 54.8%; in the experiment on WM3619, 133%; in the experiment with WM451Lu it was 38.3%.

As for `Cn1c(Nc2ccc(C(F)(F)F)cc2)nc2cc(Oc3ccnc(-c4ncc(C(F)(F)F)[nH]4)c3)ccc21` + NC(=O)Nc1cc(-c2cccc(F)c2)sc1C(=O)N[C@H]1CCCNC1 [AZD7762] (first compound 0.08 µM, partner dose 0.02 µM), the “cleaved PARP positive nuclei fraction” value was 1250% in the experiment with WM115; 293% in the experiment with WM1716; 102% in the experiment on WM1745; 140% in the experiment on WM3526; 117% in the experiment with WM3619; 48.9% in the experiment on WM451Lu.

On to `OCc1c[nH]c2ccccc12` [Indole-3-carbinol] + CO[C@@H]1[C@H](N(C)C(=O)c2ccccc2)C[C@H]2O[C@]1(C)n1c3ccccc3c3c4c(c5c6ccccc6n2c5c31)C(=O)NC4 [Midostaurin] (first compound 0.8 µM, partner dose 0.08 µM), for which the “cleaved PARP positive nuclei fraction” value was determined as 81.6% in the experiment with WM115; 201% in the experiment with WM1716; 119% in the experiment with WM1745; 181% with WM3526; 97.9% in the experiment on WM3619; 177% in the experiment with WM451Lu.

With `Clc1ccc(Nc2nnc(Cc3ccncc3)c3ccccc23)cc1` [vatalanib] + O=C(O)C(=O)Nc1sc2c(c1C(=O)O)CCNC2 [TCS401] (first compound 2 µM, partner dose 1.66667 µM), the “cleaved PARP positive nuclei fraction” value with WM115 came to 90.9%; with WM1716, 113%; in the experiment with WM1745, 117%; in the experiment on WM3526, 63.3%; in the experiment with WM3619, 231%; in the experiment with WM451Lu, 194%.

On to `CO[C@@H]1[C@H](N(C)C(=O)c2ccccc2)C[C@H]2O[C@]1(C)n1c3ccccc3c3c4c(c5c6ccccc6n2c5c31)C(=O)NC4` [Midostaurin] + CCCCCCCCCCCC1=C(O)C(=O)C=C(O)C1=O [Embelin] (first compound 0.08 µM, partner dose 1.2 µM), for which the “cleaved PARP positive nuclei fraction” value with WM115 was determined as 149%; in the experiment on WM1716, 51.9%; in the experiment on WM1745 it was 128%; with WM3526, 62.1%; in the experiment with WM3619, 68.8%; in the experiment on WM451Lu, 416%.

For `COCC[n+]1c2c(n(Cc3cnccn3)c1C)C(=O)c1ccccc1C2=O` + NCC(=O)Nc1ccc(-n2nc(C(F)(F)F)cc2-c2ccc3c(ccc4ccccc43)c2)cc1 [OSU03012] (first compound 0.0004 µM, partner dose 1 µM), the “cleaved PARP positive nuclei fraction” value came to 107% in the experiment with WM115; 145% with WM1716; 92.6% in the experiment on WM1745; 79% in the experiment with WM3526; 118% in the experiment on WM3619; 95.7% in the experiment on WM451Lu.

Regarding `Cc1cc(N2CCOCC2)cc2[nH]c(-c3c(NC[C@@H](O)c4cccc(Cl)c4)cc[nH]c3=O)nc12` + COc1ccc(COc2ccc(Cc3cnc(N)nc3N)cc2OC)cc1 [GW2580] (first compound 0.2 µM, partner dose 1 µM), the “cleaved PARP positive nuclei fraction” value worked out at 48.3% in the experiment with WM115; 98% in the experiment on WM1716; 117% with WM1745; 119% with WM3526; 86.5% in the experiment on WM3619; 195% in the experiment on WM451Lu.

On to `C[C@@H]1CCN(C(=O)CC#N)C[C@@H]1N(C)c1ncnc2[nH]ccc12` + c1cc(-c2cnn3cc(-c4ccc(OCCN5CCCCC5)cc4)cnc23)ccn1 [Dorsomorphin] (first compound 1 µM, partner dose 0.4 µM), for which the “cleaved PARP positive nuclei fraction” value is 87% with WM115; 83.3% with WM1716; 127% in the experiment on WM1745; 67.8% in the experiment on WM3526; 63.2% with WM3619; 81.3% with WM451Lu.

As for `NC(=O)Nc1cc(-c2cccc(F)c2)sc1C(=O)N[C@H]1CCCNC1` + N#Cc1c(O)c2c(-c3ccc(-c4ccccc4O)cc3)csc2[nH]c1=O [A769662] (first compound 0.02 µM, partner dose 2 µM), the “cleaved PARP positive nuclei fraction” value with WM115 is 71.6%; in the experiment with WM1716, 173%; in the experiment on WM1745 it was 115%; with WM3526, 83.2%; with WM3619 it was 169%; in the experiment on WM451Lu, 272%.

Regarding `CC1(C)NC(=O)N(c2ccc([N+](=O)[O-])c(C(F)(F)F)c2)C1=O` [nilutamide] + COc1ccc(COc2ccc(Cc3cnc(N)nc3N)cc2OC)cc1 [GW2580] (first compound 1 µM, partner dose 1 µM), the “cleaved PARP positive nuclei fraction” value in the experiment with WM115 stood at 123%; with WM1716, 85.5%; in the experiment with WM1745, 111%; in the experiment on WM3526, 176%; in the experiment with WM3619 it was 102%; in the experiment on WM451Lu, 55.8%.

Take `C=CCn1c(=O)c2cnc(Nc3ccc(N4CCN(C)CC4)cc3)nc2n1-c1cccc(C(C)(C)O)n1` + COc1cc(N2CCC(N3CCN(C)CC3)CC2)ccc1Nc1ncc(Cl)c(Nc2ccccc2S(=O)(=O)C(C)C)n1 [NVP-TAE684] (first compound 0.02 µM, partner dose 0.08 µM): the “cleaved PARP positive nuclei fraction” value in the experiment with WM115 was found to be 236%; in the experiment with WM1716, 68.7%; in the experiment on WM1745, 121%; in the experiment with WM3526, 33.7%; in the experiment with WM3619, 127%; with WM451Lu, 50%.
